Source: PMC10163288
Some of the results follow.

B1: il2ra_site2_2erj_normal_mot_11d5c034b8d8655e840008a001915456_0001_af2_000000095_0001_16_32_H_._HHH_b1_02299_0001_0000300011_0000001_0 (protein)
chain: SSSSDEEERRVNKLLREAIELFQEGNPEEAEKLLEEALELARELGDPRLQEAVEFALHVLRSSSS
B2: il2ra_site1_2b5i_sap_12_mot_HHH_b1_03134_af2_000000081_0001_1_21_H_._HHH_b2_02519_0001_0000200009_0000001_0_0001_af2pred_dldesign_0_af2pred (protein)
chain: SSSSSGFAREGLLKANEAFQNENAEELKKLLEEMKKLAEETKDPNLVRVAKLIEAALEELSSSSS
B3: il2ra_site1_3nfp_sap_8_mot_HHH_b1_01335_af2_000000105_0001_39_53_H_._HHH_b2_06296_0001_0000300022_0000001_0_0001 (protein)
chain: NDAEQASKIIEEALKSLGAKSFEVEVENNEVTVTVEGDDERSREVREAAKHVAKAVGVPVEVESE
B4: il2ra_site1_1z92_sap_19_mot_HHH_b1_02658_af2_000000167_0001_43_56_H_._HEEHE_3358_0001_0000100005_0000001_0_0001_af2pred_0001_af2pred_swapped (protein)
chain: SARELLKQLEKELGDPREALRIALEFVERLAGDPRLAVQFLKRVLRKLNDPELEELLRELEEELR
B5: il2ra_site2_3nfp_sap_22_mot_HHH_b1_02226_af2_000000060_0001_38_52_H_._HHH_b1_01373_0001_0000300028_0000001_1_0001 (protein)
chain: SSSSDEEQREVEELLEEARKAIEEGDPYKAAQLLVEAAELIAKLNDEELARILLELFAELQSSSS
B6: il2ra_site2_3nfp_sap_21_mot_HHH_b1_01379_af2_000000227_0001_41_54_H_._HHH_b2_08355_0001_0000100001_0000001_0_0001 (protein)
chain: SSSSSDDEEIIRYAALAAKLARETVSEEDQEKLEELLRELEEEGDPRLAAELAQLAAELLSSSSS
B7: il2ra_site1_1z92_normal_mot_2548690152cc24afdf538b66510d0e06_0001_af2_000000007_0001_37_50_H_._66959ead3e6c57cb3ef8243f3eb758e0_0001_1_0001_0000100014_0000001_0 … (protein)
chain: NTSEELLREAVEKNDEEELREFIKLALEDAGDPRLVKQLLKILVKRLGLPPEVLERLEELLEELT
B8: il2ra_site2_2erj_normal_mot_HHH_b1_07975_000000000_0001_41_57_H_._HHH_b2_05199_af2_0001_0000500037_0000001_0 (protein)
chain: SSSSNEELRRLFELFNILLELLQEGDEEEFEKVLEEAKELAKELQSESAEEALEWLERLLSSSSS
B9: il2ra_site1_2b5i_normal_mot_HHH_b2_04910_000000118_0001_1_19_H_._HHH_b1_00058_af2_0001_0000700020_0000001_0_af2pred_dldesign_0_af2pred (protein)
chain: SSSSSAVAEARELFLEADKLFQAGKEEEALKKLEEALRLATEAGAKLLVRIIELAIENLKSSSSS
B10: il2ra_site1_1z92_sap_17_mot_HHH_b2_05238_af2_000000252_0001_38_55_H_._HHH_b1_02400_0001_0000200030_0000001_0_0001_af2pred_dldesign_0_af2pred (protein)
chain: SSSSSSREVAADRLVDYFVEANGLSEEQRAELRARARAMVAAGVSPIEIAEWLQELSKKLSSSSS
B11: il2ra_site2_3nfp_normal_mot_HHH_b2_05281_000000198_0001_39_56_H_._HHH_b1_08465_0001_0000200009_0000001_0 (protein)
chain: SSSSDLEEEVRELLKRAEELLEKGNPEEARKLIAEAVQLVYENRNAELFYLVAEVAFKLHQSSSS
B12: il2ra_site1_3nfp_normal_mot_eb5a5eebac1e5153f932cc6c3f4b2787_0001_af2_000000100_0001_18_33_H_._3adf794c310dfc5b06560a56f1fbbe6f_0001_1_0001_0000100005_0000001_0 … (protein)
chain: NAERLLEELIRAAEERGDEEVVEFLRELLRLLREGDPEAYKLVEELAEVAAKDLEKALELAKELR
B13: il2ra_site1_3nfp_sap_11_mot_HHH_b2_05178_af2_000000174_0001_1_19_H_._HHH_b2_07388_0001_0000100002_0000001_0_0001_af2pred_0001_af2pred (protein)
chain: SLEHLERALRQVARADPIAEELLRLLEELRERGVPPEEVLELLLELARELGDPALRYLIEAVLSK
B14: il2ra_site2_3nfp_normal_mot_0e529dd47276c7fc43eae82927e5780b_0001_af2_000000030_0001_35_48_H_._1ca096cc36b46ebbf1faa9362c3fa206_0001_1_0001_0000100002_0000001_0 … (protein)
chain: PLEELKLEAFEKGDPDLRRLLLELRELAEERGIPPEEIEELLERIQEELNVPPEEAIEILIKELK
B15: il2ra_site1_3nfp_normal_mot_HHH_b2_04366_af2_000000103_0001_1_19_H_._d3e5e791db42274430e6ef9f54efc4f5_0001_af2_0001_0000100007_0000001_0_af2pred_0001_af2pred_sw … (protein)
chain: SAKEISELLREAARKDPEVSELLWEALRLFVKNEEEALRLLEELLKELGDPLVEEVLRLLEELAK
B16: il2ra_site2_2erj_normal_mot_HHH_b1_03609_af2_000000077_0001_42_55_H_._HHH_b1_08035_af2_0001_0000100002_0000001_0 (protein)
chain: SSSSDELEELRQRAEELIEEGDPEEALEVLREASELAFELGDFETWSEIAELLRLVARAESSSSS
B17: il2ra_site2_2erj_normal_mot_HHH_b1_06608_000000059_0001_22_39_H_._HHH_b1_04589_0001_0001200014_0000001_0 (protein)
chain: SSSSDEEEVRELIKQAEELLEEGDPEKASRVVARAAFIVIELGNVELARRLFELAREIFEASSSS
B18: il2ra_site2_3nfp_normal_mot_7675ed0aaee259bd5fe474e1c5677d04_0001_1_af2_000000130_0001_50_65_H_._94dd93bd6c412fbbff13e3b64d3c2b88_0001_af2_0001_0000100004_00000 … (protein)
chain: DHTEEYLLAALKLALHDPRTRELVREALELLLGDPEEAEELLKELLELLREGDTERVEELLREVL
B19: il2ra_site1_2b5i_normal_mot_HHH_b1_02271_000000068_0001_1_16_H_._HHH_b2_05591_0001_0000200002_0000001_0_af2pred_dldesign_0_af2pred (protein)
chain: SSSSSPLDARVAATLAEARALAAAGRRREALELLNELAKEIDELDREELRARVEALFRELSSSSS
B20: il2ra_site1_3nfp_normal_mot_HHH_b2_02028_000000074_0001_1_17_H_._8e257ee7c168324b0daa1e7d19ed2966_0001_0001_0000200010_0000001_0_af2pred_0001_af2pred_1_swapped (protein)
chain: SLEEALEFLEELAEKLNDSALKLLVEALEKLVRNGNAELARAAVERFLETTGDPKLEEVLELLRK
B21: il2ra_site2_2erj_normal_mot_HHH_b2_06912_000000039_0001_38_52_H_._HHH_b2_03682_af2_0001_0000400025_0000001_0 (protein)
chain: SSSSSDYWEEVAELLAEALRAFKEGDPELVEELLEEAQRVAEENNDEYLKRYIELARKDASSSSS
B22: il2ra_site2_3nfp_sap_19_mot_HHH_b2_06150_000000217_0001_39_53_H_._HHH_b2_03993_af2_0001_0000100001_0000001_0_0001 (protein)
chain: SSSSDKAQKYLEAAIEIVKRALEEGDPESARKSAETAALAAESRGDEELLKEIEELLEEISSSSS
B23: il2ra_site1_2b5i_sap_17_mot_HHH_b1_08678_af2_000000008_0001_41_54_H_._HHH_b2_02895_0001_0000500022_0000001_0_0001 (protein)
chain: SSSSNELKELVRFVLRLKHEFNLSQELVRELLRLLNELHQRGVSPEEIKEILEKVAEELGSSSSS
B24: il2ra_site1_2b5i_normal_mot_HHH_b2_04910_000000118_0001_1_19_H_._HHH_b1_07300_af2_0001_0000300009_0000001_0 (protein)
chain: SSSSNESERVRELFELADRLDKNGNPEEAEEVLKEAEELAEEANNRHLQRQVEAAKRAFESSSSS

Each binder was assayed against il2ra, P01589 (assay: yeast display titration).

Apparent Kd, inactive:
B1 no binding seen, B2 no binding seen, B3 no binding seen, B4 no binding seen, B5 no binding seen, B6 no binding seen, B7 no binding seen, B8 no binding seen, B9 no binding seen, B10 no binding seen, B11 no binding seen, B12 no binding seen, B13 no binding seen, B14 no binding seen, B15 no binding seen, B16 no binding seen, B17 no binding seen, B18 no binding seen, B19 no binding seen, B20 no binding seen, B21 no binding seen, B22 no binding seen, B23 no binding seen, B24 no binding seen
